At least one peptide structure holds a part that was inferred or is arguable (an end, a ring closure or a residue). Where a SMILES comes first, the peptide text is derived from it.
How the values were obtained:
S. typhimurium [1] = experiment: Survival of mice after i.p. S. typhimurium infection, timing of PR-26 delivery (third experiment); format: in vivo
S. typhimurium [2] = experiment: Survival of mice after i.p. S. typhimurium infection (second experiment); format: in vivo, Balb/C mice; conditions: 14 days post-infection
S. typhimurium [3] = experiment: Survival of mice after oral S. typhimurium challenge (first experiment); format: in vivo, A/J mice; conditions: two doses, 15 days
Procedure: Effect of PR-26 on survival of mice challenged with S. typhimurium. Three separate S. typhimurium challenge studies were conducted with mice. In the first experiment, 45 A/J mice (Jackson Labs, Bar Harbor, Me.) were orally challenged with S. typhimurium. Feed was withdrawn 4 hrs. prior to an oral inoculation. Twenty min. prior to the inoculation with S. typhimurium mice were given a 30 μl dose of a 10% sodium bicarbonate solution in PBS. S. typhimurium, strain KSU007, was started in brain heart infusion broth overnight and then grown for 6 hrs. in Luria Broth Base (GIBCO, Gaithersburg, Md.). After centrifugation, bacteria were suspended in a 1% gelatin solution (final concentration 1.24×10^10 S. typhimurium/ml), and then 25 μl were given orally. Immediately following oral inoculation with S. typhimurium, mice were given 0, 100, or 250 μg of PR-26 in PBS. A second dose of PR-26 or PBS was given 4 hrs. later.

CC[C@H](C)[C@H](NC(=O)[C@H](CCCNC(=N)N)NC(=O)[C@@H]1CCCN1C(=O)[C@@H]1CCCN1C(=O)[C@H](CC(C)C)NC(=O)[C@H](CCCNC(=N)N)NC(=O)[C@@H]1CCCN1C(=O)[C@@H]1CCCN1C(=O)[C@H](Cc1ccccc1)NC(=O)[C@H](Cc1ccccc1)NC(=O)[C@@H]1CCCN1C(=O)[C@@H]1CCCN1C(=O)[C@@H]1CCCN1C(=O)[C@H](CCCNC(=N)N)NC(=O)[C@@H]1CCCN1C(=O)[C@H](CCCNC(=N)N)NC(=O)[C@@H]1CCCN1C(=O)[C@H](CC(C)C)NC(=O)[C@H](Cc1ccc(O)cc1)NC(=O)[C@@H]1CCCN1C(=O)[C@@H]1CCCN1C(=O)[C@H](CCCNC(=N)N)NC(=O)[C@@H]1CCCN1C(=O)[C@H](CCCNC(=N)N)NC(=O)[C@H](CCCNC(=N)N)NC(=O)[C@@H](N)CCCNC(=N)N)C(=O)O [PR-26] (H-RRRPRPPYLPRPRPPPFFPPRLPPRI-OH)
survival versus PBS control (S. typhimurium [1]; 50 μg/mouse given 24 hrs. post-infection, by day 14): slightly improved the survival | survival versus PBS control (S. typhimurium [1]; 50 μg/mouse given 48 hrs. post-infection): not different than the PBS control treatment | survival versus PBS control (S. typhimurium [1]; 50 μg/mouse given 72 hrs. post-infection, day 15, P<0.10): different from PBS control | survival (S. typhimurium [2]; 50 μg i.p.): more than 50% | survival (S. typhimurium [2]; 100 μg i.p.): more than 50% | deaths (S. typhimurium [3]; 100 μg/mouse): 1 | deaths (S. typhimurium [3]; 250 μg/mouse): 0
